According to PubChem BioAssay AID504834 (National Center for Advancing Translational Sciences (NCATS), 2011):
Hit rate of the full screen: of about 320,000 compounds, about 22,000 (6.9%) were called active. The shares of active, inactive and inconclusive entries below differ from those in the screen. The call rests on the fitted dose curve; in most records, active means well fitted inhibition curve with a large enough effect; inconclusive means small, poorly fitted or top-dose-only effect, or another doubt; inactive means no such curve, though single readings can be large or run the other way. Where the call is inconclusive, the potency comes from a doubtful curve fit.

Assay: Primary qHTS for delayed death inhibitors of the malarial parasite plastid, 96 hour incubation
Conditions: P. falciparum luciferase reporter growth; series mostly up to 28.7 µM; activity change, negative = inhibition: at the top concentration
Method in brief: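 Cell-based qHTS: luciferase-tagged P. falciparum in erythrocytes (2% hematocrit, 0.05% parasitemia final) incubated with compounds for 96 hours, 37 C, 5% CO2; luciferase detection reagent then added and luminescence measured.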
On the % scale 0 is the no-effect control and ±100 the full control effect; potency means the concentration at half of the fitted maximal effect.

Q: Which Potency does the source give for COc1cccc(C(=O)N2CCC3(CC2)OCCO3)c1 here?
A: inconclusive: 0.415 µM [inhibitor, full curve, poor fit]

Q: For CCN(CC)S(=O)(=O)c1ccc(N2CCOCC2)c(NC(=O)C2COc3ccccc3O2)c1 (configuration not stated), which “activity change, negative = inhibition” value is on record?
A: inactive: -16%

Q: For CC1=C(C(N)=O)C(c2ccccc2)n2nc(-c3cccc(C)c3)nc2N1 (configuration not stated), which Potency is on record?
A: inconclusive: 10.4 µM [inhibitor, single point]

Q: For N#CC12COC3(CCCCC3C1(C#N)C#N)OC2=N (configuration not stated), which “activity change, negative = inhibition” value is on record?
A: inactive: 21.8%

Q: Which “activity change, negative = inhibition” value does the source give for COc1ccccc1NC(=O)CN1CCN(C(=O)c2ccco2)CC1 here?
A: inactive: -25.2%

Q: For Cc1cccc(NC(=O)CSCC(=O)N2CCCc3ccccc32)c1, which Potency is on record?
A: inconclusive: 4.15 µM [inhibitor, single point]

Q: With CC(=O)NC(CCCNC(=S)NC1CCCCC1)C(=O)O (configuration not stated) as the compound, how does the “activity change, negative = inhibition” value read?
A: inactive: -0.915%

Q: With Brc1ccccc1C1Nc2cccc3cccc(c23)N1 as the compound, how does the “activity change, negative = inhibition” value read?
A: inactive: 0%

Q: For CCN(CC)c1ccc(NC(=O)c2ccc(=O)[nH]c2)cc1S(=O)(=O)Nc1ccc(OC)cc1, which Potency is on record?
A: active: 9.28 µM

Q: Which Potency does the source give for CC1CCN(S(=O)(=O)c2ccc3[nH]c(=O)cc(C(=O)O)c3c2)CC1 here?
A: active: 2.94 µM

Q: Which Potency does the source give for COc1ccc(CN2CCN(C(=O)c3ccc(S(=O)(=O)N4CCCCCC4)cc3)CC2)cc1F here?
A: inconclusive: 5.22 µM [inhibitor, partial curve, poor fit]

Q: With O=C(NNC(=O)C12CC3CC(CC(C3)C1)C2)c1cccc(O)c1 as the compound, how does the “activity change, negative = inhibition” value read?
A: inactive: 1.08%

Q: With COc1cc(CC(=O)OCC(=O)Nc2ccc(S(=O)(=O)N3CCCC3)cc2)cc(OC)c1OC as the compound, how does the Potency read?
A: inconclusive: 9.28 µM [inhibitor, partial curve, poor fit]

Q: With Cc1cc(NC(=O)CCC(=O)N(Cc2ccco2)C(C(=O)NCC2CCCO2)c2ccncc2)no1 (configuration not stated) as the compound, how does the “activity change, negative = inhibition” value read?
A: inactive: 86.3%

Q: For Cc1cc(NC(=S)NC(=O)CC(C)C)ccc1Br, which Potency is on record?
A: inconclusive: 0.928 µM [inhibitor, partial curve, poor fit]

Q: Which Potency does the source give for CC(=O)Oc1c(C)c(OC(C)=O)c2c(c1C(C)=O)OC1CC(=O)C(C(C)=O)=C(O)C21C (configuration not stated) here?
A: active: 11.7 µM

Q: Which Potency does the source give for CCN(CC)C(=O)c1ccc2c(c1)C1C(Cl)C(Sc3ccccc3[N+](=O)[O-])CC1C(C(=O)O)N2 (configuration not stated) here?
A: inconclusive: 9.28 µM [inhibitor, partial curve]

Q: With CCn1c(SCC(=O)Nc2cc(C)ccc2C)nnc1-c1cnccn1 as the compound, how does the Potency read?
A: inconclusive: 20.8 µM [inhibitor, single point]

Q: With CCc1ccc(CN(C)Cc2nc(Cc3ccccc3)no2)nc1 as the compound, how does the Potency read?
A: inconclusive: 3.7 µM [inhibitor, partial curve, poor fit]

Q: Which Potency does the source give for CN1CCN(CCc2nc3cc(NC(=O)COc4ccc(Cl)cc4)ccc3n2C)CC1 here?
A: active: 9.28 µM

Q: With Cc1cc(-c2onc(C)c2C(=O)N/N=C/c2ccccc2)no1 as the compound, how does the “activity change, negative = inhibition” value read?
A: inactive: 43.6%

Q: Which Potency does the source give for Cc1cccc(NC(=O)CSc2nc(C)nc3c2c(=O)n(C)c(=O)n3C)c1 here?
A: inconclusive: 13.1 µM [inhibitor, single point]

Q: With O=C(Nc1ccc(Cl)cc1C(=O)N1CCOCC1)c1cccc([N+](=O)[O-])c1 as the compound, how does the Potency read?
A: inconclusive: 10.4 µM [inhibitor, single point]

Q: With COCCCNC(=S)NNC(=S)Nc1cccc(Cl)c1 as the compound, how does the “activity change, negative = inhibition” value read?
A: inactive: -10.3%

Q: With CCCOc1ccc(C2c3c(oc4ccccc4c3=O)C(=O)N2CCCN2CCOCC2)cc1 (configuration not stated) as the compound, how does the Potency read?
A: inconclusive: 14.7 µM [inhibitor, partial curve, poor fit]

Q: With COc1cc(NC(=O)Cc2ccccc2)cc(OC)c1 as the compound, how does the “activity change, negative = inhibition” value read?
A: inactive: 13.7%

Q: Which Potency does the source give for CC(C(=O)Nc1ccccc1-c1ccccc1)N(C)Cc1nc2ccccc2c(=O)[nH]1 (configuration not stated) here?
A: inconclusive: 6.57 µM [inhibitor, partial curve]

Q: With Cc1ccc(SCC(=O)NCc2ccco2)cc1 as the compound, how does the Potency read?
A: inconclusive: 1.65 µM [inhibitor, full curve]

Q: For O=C1NC(=O)/C(=C/c2cc3c(cc2Br)OCO3)S1, which Potency is on record?
A: inconclusive: 1.85 µM [inhibitor, partial curve, poor fit]

Q: With CCOC(=O)CN(C(=O)COc1nc(-c2ccccc2)cc(C)c1C#N)c1ccc(C)cc1 as the compound, how does the Potency read?
A: active: 5.86 µM

Q: With Cc1ccc2c(c1)[C@@H]1CN(C)CC[C@H]1N2 as the compound, how does the “activity change, negative = inhibition” value read?
A: inactive: -15%

Q: Which Potency does the source give for COc1ccc(CCC(=O)NNC(=O)c2ccccn2)cc1OC here?
A: inconclusive: 18.5 µM [inhibitor, single point]

Q: With O=c1[nH]c(O)c(C=Nc2cc(F)cc(F)c2)c(=O)[nH]1 as the compound, how does the Potency read?
A: inconclusive: 13.1 µM [inhibitor, single point]

Q: For Cc1cc(C)cc(NC(=O)CSc2nnc(-c3ccc(S(=O)(=O)N4CCCC4)cc3)o2)c1, which Potency is on record?
A: active: 5.22 µM

Q: Which Potency does the source give for O=C(N/N=C(\Cc1ncc[nH]1)c1ccccc1)c1cccnc1 here?
A: inconclusive: 11.7 µM [inhibitor, single point]

Q: For O=C(NCc1ccc2c(c1)OCO2)C1CCCN1C(=O)Nc1ccc(Cl)cc1 (configuration not stated), which “activity change, negative = inhibition” value is on record?
A: inactive: 23.3%

Q: For O=C(CN1CCN(S(=O)(=O)c2ccccc2)CC1)Nc1ccc(Cl)c([N+](=O)[O-])c1, which Potency is on record?
A: inconclusive: 3.7 µM [inhibitor, partial curve]

Q: For CCCCP(=O)(O)c1ccccc1, which Potency is on record?
A: inconclusive: 9.28 µM [inhibitor, partial curve, poor fit]

Q: Which Potency does the source give for CCOC(=O)C1CCCN(C(=O)COc2ccc(N(C)S(=O)(=O)c3ccc(F)cc3)cc2)C1 (configuration not stated) here?
A: inconclusive: 18.5 µM [inhibitor, single point]

Q: For CC(C)c1nnc(NC(=O)CCC2CCCCC2)s1, which “activity change, negative = inhibition” value is on record?
A: inactive: 0%

Q: Which “activity change, negative = inhibition” value does the source give for Cc1ccc(-n2c(SCC(=O)OC(C)C)nnc2-c2ccncc2)cc1 here?
A: inactive: 19.6%

Q: With COc1ccccc1OCCCCN1CCN(c2ccccc2OC)CC1 as the compound, how does the Potency read?
A: inconclusive: 18.5 µM [inhibitor, single point]

Q: Which Potency does the source give for COc1ccc(CC(=O)Nc2ccc(N3CCCC3)c(C)c2)cc1 here?
A: inconclusive: 18.5 µM [inhibitor, partial curve, poor fit]

Q: For Nc1nnc(N2CCc3ccccc32)s1, which Potency is on record?
A: inconclusive: 18.5 µM [inhibitor, single point]

Q: With O=C(NCc1ccccn1)Nc1ccccc1Cl as the compound, how does the “activity change, negative = inhibition” value read?
A: inactive: -2.26%

Q: For COc1ccc2c(c1)CCc1sc(NC(=O)c3ccc(C)cc3)nc1-2, which Potency is on record?
A: active: 6.57 µM

Q: With N#CCC(=O)N/N=C/c1ccc(OS(=O)(=O)c2ccccc2)cc1 as the compound, how does the “activity change, negative = inhibition” value read?
A: inactive: 17.6%
